{
  "source": "PubChem BioAssay AID2685",
  "about": "(National Center for Advancing Translational Sciences (NCATS), 2010)",
  "experiment": "qHTS Assay for Lipid Storage Modulators in Drosophila S3 Cells;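 as to cell number change: cells counted by Cell Tracker Red CMTPX staining in the red channel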",
  "settings": "BODIPY lipid droplet fluorescence, 18-24 h; for cell number change: measured here: cell count max response, cells fed with added oleic acid",
  "how_it_was_run": "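Drosophila S3 cells loaded with oleic acid (400 uM, as added) and compounds at several concentrations; lipid droplets imaged by 488-nm laser-scanning cytometry, 500–530 nm intensity and object ratio to cell channel. Percent activity normalized to 20 uM Triacsin C.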",
  "key": {"[1]": {"settings": "measured here: cell number channel AC50, cells fed with added oleic acid"}, "[2]": {"settings": "measured here: lipid fluorescence (Fed channel) AC50, cells fed with added oleic acid"}},
  "note": "The other results are listed elsewhere or left out. These are further read-outs of the screen, such as a control signal, another cell line or another target. No call is given for them. Most of these compounds were active or inconclusive in the main read-out, so they are no random draw. The note in brackets gives the kind of curve behind each potency; many fits are weak.",
  "data": [
    {"smiles": "CN(C)S(=O)(=O)c1cccc(NC(=O)CCc2nc3sc4c(c3c(=O)[nH]2)CCCC4)c1", "values": [
      {"measurement": "cell number change", "value": 3.24, "unit": "%"}
    ]},
    {"smiles": "CC(=O)c1c(C)n(-c2ccccc2Br)c2ccc(O)cc12", "values": [
      {"measurement": "cell number change", "value": -1.41, "unit": "%"},
      {"measurement": "AC50", "setting": "[1]", "value": "0.461 µM [falling, single point]"}
    ]},
    {"smiles": "CC(=O)Oc1ccc(C(=O)Nc2cc(NC(=O)c3ccc(OC(C)=O)cc3)cc(C(=O)NC(C)(C)C)c2)cc1", "values": [
      {"measurement": "cell number change", "value": 2.04, "unit": "%"},
      {"measurement": "AC50", "setting": "[2]", "value": "3.66 µM [rising, partial curve]"}
    ]},
    {"smiles": "NC(=O)c1cc(C(N)=O)nc(Cl)n1", "values": [
      {"measurement": "cell number change", "value": 7.4, "unit": "%"},
      {"measurement": "AC50", "setting": "[1]", "value": "0.231 µM [falling, full curve]"}
    ]},
    {"smiles": "CC(c1ccccc1)N1C(=O)OC(C)(C)C1(C)O", "note": "(stereo not drawn)", "values": [
      {"measurement": "cell number change", "value": 12.1, "unit": "%"}
    ]},
    {"smiles": "CCN1C(=O)c2ccccc2Sc2ccc(C(=O)NCCCN3CCCCC3)cc21", "values": [
      {"measurement": "cell number change", "value": 4.75, "unit": "%"},
      {"measurement": "AC50", "setting": "[2]", "value": "11.6 µM [rising, partial curve, poor fit]"}
    ]},
    {"smiles": "COc1ccc(C(=O)NCC(C)CN(C)C)cc1", "note": "(stereo not drawn)", "values": [
      {"measurement": "cell number change", "value": 1.08, "unit": "%"},
      {"measurement": "AC50", "setting": "[2]", "value": "20.6 µM [falling, single point]"}
    ]},
    {"smiles": "Fc1ccc(-c2nnc3sc(C4COc5ccccc5O4)nn23)cc1", "note": "(stereo not drawn)", "values": [
      {"measurement": "cell number change", "value": -1.35, "unit": "%"}
    ]},
    {"smiles": "Cc1ccc(NC(=O)COC(=O)Cn2c(C)csc2=O)cc1", "values": [
      {"measurement": "cell number change", "value": -4.7, "unit": "%"}
    ]},
    {"smiles": "CCOc1ccc(C2C3=C(CCCC3=O)N(CC(=O)O)C3=C2C(=O)CCC3)cc1", "values": [
      {"measurement": "cell number change", "value": -30.7, "unit": "%"},
      {"measurement": "AC50", "setting": "[1]", "value": "32.6 µM [falling, partial curve, poor fit]"}
    ]},
    {"smiles": "COc1ccc(-c2[nH]ncc2CN2CCC(O)(c3ccc(Cl)cc3)CC2)cc1", "values": [
      {"measurement": "cell number change", "value": 9.38, "unit": "%"}
    ]},
    {"smiles": "Nc1c(C(=O)N/N=C/c2ccccc2)cnn1-c1ccccc1", "values": [
      {"measurement": "cell number change", "value": 5.94, "unit": "%"},
      {"measurement": "AC50", "setting": "[2]", "value": "0.259 µM [rising, partial curve, poor fit]"}
    ]},
    {"smiles": "O=S(=O)(CCSc1ccc(C(F)(F)F)cn1)c1ccc(Cl)cc1", "values": [
      {"measurement": "AC50", "setting": "[1]", "value": "0.0651 µM [falling, full curve, poor fit]"}
    ]},
    {"smiles": "CC(C)c1nnc(NC(=O)CCc2ccccc2)s1", "values": [
      {"measurement": "cell number change", "value": 26.7, "unit": "%"}
    ]},
    {"smiles": "CNC(=O)N/N=C(\\N)c1ccccn1", "values": [
      {"measurement": "cell number change", "value": -47.7, "unit": "%"},
      {"measurement": "AC50", "setting": "[1]", "value": "7.31 µM [falling, partial curve, poor fit]"},
      {"measurement": "AC50", "setting": "[2]", "value": "2.91 µM [falling, partial curve]"}
    ]},
    {"smiles": "O=C(CCC(=O)OCC(=O)c1ccc(Cl)cc1Cl)Nc1cccc2cccnc12", "values": [
      {"measurement": "cell number change", "value": 29.2, "unit": "%"}
    ]},
    {"smiles": "CS(=O)(=O)c1ccc2nc(NC(=O)C3=NN(c4ccccc4)C(=O)CC3)sc2c1", "values": [
      {"measurement": "cell number change", "value": -13.5, "unit": "%"}
    ]},
    {"smiles": "COc1cc(/C=N/NS(=O)(=O)c2ccc3ccccc3c2)ccc1OCCN1CCOCC1", "values": [
      {"measurement": "cell number change", "value": -2.08, "unit": "%"},
      {"measurement": "AC50", "setting": "[2]", "value": "29.1 µM [rising, single point]"}
    ]},
    {"smiles": "O=C(NCc1cccnc1)c1cccn1-c1ncc(C(F)(F)F)cc1Cl", "values": [
      {"measurement": "cell number change", "value": -39.4, "unit": "%"},
      {"measurement": "AC50", "setting": "[1]", "value": "0.00461 µM [falling, full curve, poor fit]"},
      {"measurement": "AC50", "setting": "[2]", "value": "20.6 µM [falling, single point]"}
    ]},
    {"smiles": "CC(=O)Nc1ccc(S(=O)(=O)N[C@@H](C)C(=O)N2CCN(C/C=C/c3ccccc3)CC2)cc1", "values": [
      {"measurement": "cell number change", "value": 8.41, "unit": "%"},
      {"measurement": "AC50", "setting": "[2]", "value": "0.00517 µM [falling, full curve, poor fit]"}
    ]},
    {"smiles": "CN(C)/C=C1\\Oc2ccc3ccccc3c2C1=O", "values": [
      {"measurement": "cell number change", "value": -30.8, "unit": "%"}
    ]},
    {"smiles": "Cc1ccc(CCNC(=O)CN2C(=O)COc3ccc(S(=O)(=O)N4CCOCC4)cc32)cc1", "values": [
      {"measurement": "cell number change", "value": 11.5, "unit": "%"}
    ]},
    {"smiles": "O=C(NCc1ccco1)NCC(F)(F)F", "values": [
      {"measurement": "cell number change", "value": -10.5, "unit": "%"},
      {"measurement": "AC50", "setting": "[2]", "value": "29.1 µM [rising, single point]"}
    ]},
    {"smiles": "CN(C(=O)CCc1nnc(-c2ccc(-c3ccccc3)cc2)o1)C1CCOCC1", "values": [
      {"measurement": "AC50", "setting": "[2]", "value": "18.4 µM [falling, single point]"}
    ]},
    {"smiles": "O=S(=O)(c1ccc(F)cc1)N1CCN(C(=S)NC2CC2)CC1", "values": [
      {"measurement": "cell number change", "value": -38.7, "unit": "%"},
      {"measurement": "AC50", "setting": "[1]", "value": "0.00517 µM [falling, full curve, poor fit]"},
      {"measurement": "AC50", "setting": "[2]", "value": "0.461 µM [falling, full curve, poor fit]"}
    ]},
    {"smiles": "COC(=O)C1=C(CSc2nc3ccccc3o2)NC(=O)NC1c1cc(C)ccc1C", "note": "(stereo not drawn)", "values": [
      {"measurement": "cell number change", "value": 6.81, "unit": "%"}
    ]},
    {"smiles": "Cc1cc(C)n2nc(C(=O)OCC(=O)N(C)C3CCCCC3)nc2n1", "values": [
      {"measurement": "cell number change", "value": 11.9, "unit": "%"},
      {"measurement": "AC50", "setting": "[2]", "value": "5.8 µM [falling, single point]"}
    ]},
    {"smiles": "O=C(/C=C/Sc1ccccc1)c1ccccc1", "values": [
      {"measurement": "AC50", "setting": "[1]", "value": "5.17 µM [falling, single point]"},
      {"measurement": "AC50", "setting": "[2]", "value": "20.6 µM [falling, single point]"}
    ]},
    {"smiles": "CCOc1ccc(-n2c(Cc3cc(=O)[nH]c(=O)[nH]3)nnc2SC(C)C)cc1", "values": [
      {"measurement": "cell number change", "value": -10.4, "unit": "%"},
      {"measurement": "AC50", "setting": "[2]", "value": "18.4 µM [falling, single point]"}
    ]},
    {"smiles": "Cc1ccc(S(=O)(=O)CC(=O)NCc2ccccc2)cc1", "values": [
      {"measurement": "cell number change", "value": 17.8, "unit": "%"},
      {"measurement": "AC50", "setting": "[2]", "value": "29.1 µM [rising, single point]"}
    ]},
    {"smiles": "Nc1cc(=O)[nH]c(=O)n1Cc1ccco1", "values": [
      {"measurement": "cell number change", "value": -1.02, "unit": "%"}
    ]},
    {"smiles": "CCN(CC)c1ccc(NC(=O)COc2ccccc2C#N)cc1S(=O)(=O)Nc1ccc(OC)cc1", "values": [
      {"measurement": "cell number change", "value": 33.3, "unit": "%"},
      {"measurement": "AC50", "setting": "[1]", "value": "29.1 µM [rising, single point]"},
      {"measurement": "AC50", "setting": "[2]", "value": "0.103 µM [rising, full curve, poor fit]"}
    ]},
    {"smiles": "COP(C)(=O)c1c(C)nn(-c2ccccc2)c1C", "note": "(stereo not drawn)", "values": [
      {"measurement": "cell number change", "value": -146, "unit": "%"}
    ]},
    {"smiles": "Oc1ccc(CN2CCCc3ccccc32)c2cccnc12", "values": [
      {"measurement": "AC50", "setting": "[1]", "value": "3.66 µM [falling, partial curve, poor fit]"},
      {"measurement": "AC50", "setting": "[2]", "value": "3.26 µM [falling, partial curve]"}
    ]},
    {"smiles": "O=C(COc1ccccc1)N/N=C/c1ccc([N+](=O)[O-])o1", "values": [
      {"measurement": "cell number change", "value": -5.62, "unit": "%"},
      {"measurement": "AC50", "setting": "[2]", "value": "29.1 µM [falling, single point]"}
    ]},
    {"smiles": "CN(CCO)Cc1csc2ccc(Br)cc12", "values": [
      {"measurement": "cell number change", "value": -26, "unit": "%"},
      {"measurement": "AC50", "setting": "[2]", "value": "29.1 µM [falling, single point]"}
    ]},
    {"smiles": "CCOCCCNC(=O)C(c1ccc(C)cc1)N(Cc1cccs1)C(=O)c1ccccn1", "note": "(stereo not drawn)", "values": [
      {"measurement": "cell number change", "value": -94.7, "unit": "%"},
      {"measurement": "AC50", "setting": "[1]", "value": "29.1 µM [falling, single point]"}
    ]},
    {"smiles": "CCOC(=O)C1(Cc2cccc(OC)c2)CCCN(C(=O)c2ccccc2C)C1", "note": "(stereo not drawn)", "values": [
      {"measurement": "cell number change", "value": 21.5, "unit": "%"}
    ]},
    {"smiles": "N=c1ccn(Cc2ccc(Cl)cc2Cl)cc1", "values": [
      {"measurement": "cell number change", "value": 37.8, "unit": "%"}
    ]},
    {"smiles": "CCCOc1ccc(C(F)(F)F)cc1NC(=O)c1cc(C)on1", "values": [
      {"measurement": "cell number change", "value": -8.84, "unit": "%"},
      {"measurement": "AC50", "setting": "[1]", "value": "5.17 µM [falling, partial curve]"},
      {"measurement": "AC50", "setting": "[2]", "value": "4.11 µM [falling, partial curve]"}
    ]},
    {"smiles": "COc1ccc(C2=CC(=O)C[C@H](c3ccc4c(c3)OCO4)C2)cn1", "values": [
      {"measurement": "cell number change", "value": -7.34, "unit": "%"},
      {"measurement": "AC50", "setting": "[2]", "value": "0.291 µM [falling, partial curve, poor fit]"}
    ]},
    {"smiles": "O=C(CC12CC3CC(CC(Br)(C3)C1)C2)NC1CCCC1", "values": [
      {"measurement": "cell number change", "value": -34.7, "unit": "%"},
      {"measurement": "AC50", "setting": "[1]", "value": "0.0231 µM [falling, full curve, poor fit]"}
    ]},
    {"smiles": "CC(C)(C)n1nc2c(c1NC(=O)c1cccc(Cl)c1)CS(=O)(=O)C2", "values": [
      {"measurement": "AC50", "setting": "[2]", "value": "6.51 µM [falling, single point]"}
    ]}
  ]
}
